Laboratory results: PubChem BioAssay AID504774 (Drosophila RNAi Screening Center, 2011)
In all, the deposit lists about 23,000 reagents; this is a random part of those with a known target gene and a result. 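Values are quantile-normalised luminescence on an arbitrary scale; higher means more cells surviving MMS.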 Reagents against one gene are numbered here.

Purpose: 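Genes required for cells to withstand methyl methanesulphonate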 (primary screen)
System: Drosophila Kc167 cells
Reagent: long dsRNA against Drosophila genes, about 0.25 µg dsRNA per well
Timing: about 6 days: 3 days knock-down, then 3 days with or without MMS
Treatment: methyl methanesulphonate 0.004% (w/v) for 3 days after knock-down
Detection: 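Viability in wells given MMS, read as ATP luminescence, normalised by quantiles plate by plate and averaged across replicates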
Reading the numbers: mean viability with MMS and viability with MMS: higher = more surviving cells after MMS

no.	predicted target	reagent no.	mean viability with MMS	viability with MMS, replicate 1	viability with MMS, replicate 2
1	alpha-Est4aPsi (pseudo)	1	3.40e6	3.87e6	3.86e6
2	LKRSDH (Lysine ketoglutarate reductase/saccharopine dehydrogenase)	1	3.53e6	4.05e6	3.94e6
3	Vps51 (Vacuolar protein sorting 51)	1	3.53e6	4.04e6	3.96e6
4	rhea	1	3.54e6	3.94e6	4.10e6
5	NK7.1	1	3.62e6	4.13e6	4.11e6
6	Hakai	1	3.51e6	3.93e6	4.01e6
7	CG31064	1	3.45e6	3.92e6	3.85e6
8	CG31064	2	3.51e6	3.95e6	3.98e6
9	CG31064	3	3.53e6	3.95e6	4.05e6
10	CG31064	4	3.30e6	3.64e6	3.71e6
11	Abcd3 (ATP binding cassette subfamily D member 3)	1	3.44e6	3.89e6	3.92e6
12	Suv3 (Suv3 helicase)	1	3.67e6	4.18e6	4.10e6
13	CG31949	1	3.64e6	4.33e6	3.93e6
14	CG18814	1	3.57e6	4.04e6	4.05e6
15	TBC1D5 (TBC1 domain family member 5)	1	3.44e6	3.94e6	3.81e6
16	Dip-B (Dipeptidase B)	1	3.64e6	4.17e6	4.13e6
17	Grl43a (Gustatory receptor-like 43a)	1	3.46e6	3.94e6	3.93e6
18	CG31230	1	3.55e6	4.02e6	4.01e6
19	nAChRbeta2 (nicotinic Acetylcholine Receptor beta2)	1	3.49e6	3.83e6	4.10e6
20	CG42552 (retired record)	1	3.50e6	3.83e6	4.13e6
21	Nrd1 (Nardilysin)	1	3.44e6	4.02e6	3.71e6
22	CG7110	1	3.48e6	4.04e6	3.85e6
23	CG7110	2	3.54e6	4.08e6	3.96e6
24	CG13339	1	3.66e6	4.01e6	4.39e6
25	Sec61alpha (Sec61 alpha subunit)	1	3.08e6	3.44e6	3.35e6
26	CG15083	1	3.51e6	4.14e6	3.83e6
27	Dh44-R2 (Diuretic hormone 44 receptor 2)	1	3.55e6	4.10e6	4.07e6
28	Dh44-R2 (Diuretic hormone 44 receptor 2)	2	3.60e6	4.13e6	4.05e6
